Reference: PMC7352952 (International Journal of Molecular Sciences, 2020)

assay: general procedure: Fmoc solid-phase peptide synthesis; Rink amide resin (0.46 meq/g); DCC and 6-Cl-HOBt; settings: whole synthesis, 210 nm, scale of the general procedure 200 mg resin

Point of comparison: (RRWQWRMKKLG)2-K-Ahx, “final HPLC purity” value 94%. Against it:
- (RRWQWRAKKLG)2-K-Ahx — higher, 95%
- (RRWQWRLKKLG)2-K-Ahx — lower, 92%
- (RRWQWRDKKLG)2-K-Ahx — higher, 97%
- (RRWQWRFKKLG)2-K-Ahx — lower, 91%
- (RRWQWRKKKLG)2-K-Ahx — higher, 95%
